Experimental data published in publication PMC10277729.
No constants are given. Whether binding was seen depends on the method and setting. In cells and extracts the contact can be indirect. These calls come from enrichment with a bait or labelling near it, and not all partners need be listed. Tags and fused reporters may be left off the sequences shown.

Sequences of proteins named here, by UniProt entry; tags and fusion partners are left off. Residues count along the entry.
UniProt P52948, residues 1-880: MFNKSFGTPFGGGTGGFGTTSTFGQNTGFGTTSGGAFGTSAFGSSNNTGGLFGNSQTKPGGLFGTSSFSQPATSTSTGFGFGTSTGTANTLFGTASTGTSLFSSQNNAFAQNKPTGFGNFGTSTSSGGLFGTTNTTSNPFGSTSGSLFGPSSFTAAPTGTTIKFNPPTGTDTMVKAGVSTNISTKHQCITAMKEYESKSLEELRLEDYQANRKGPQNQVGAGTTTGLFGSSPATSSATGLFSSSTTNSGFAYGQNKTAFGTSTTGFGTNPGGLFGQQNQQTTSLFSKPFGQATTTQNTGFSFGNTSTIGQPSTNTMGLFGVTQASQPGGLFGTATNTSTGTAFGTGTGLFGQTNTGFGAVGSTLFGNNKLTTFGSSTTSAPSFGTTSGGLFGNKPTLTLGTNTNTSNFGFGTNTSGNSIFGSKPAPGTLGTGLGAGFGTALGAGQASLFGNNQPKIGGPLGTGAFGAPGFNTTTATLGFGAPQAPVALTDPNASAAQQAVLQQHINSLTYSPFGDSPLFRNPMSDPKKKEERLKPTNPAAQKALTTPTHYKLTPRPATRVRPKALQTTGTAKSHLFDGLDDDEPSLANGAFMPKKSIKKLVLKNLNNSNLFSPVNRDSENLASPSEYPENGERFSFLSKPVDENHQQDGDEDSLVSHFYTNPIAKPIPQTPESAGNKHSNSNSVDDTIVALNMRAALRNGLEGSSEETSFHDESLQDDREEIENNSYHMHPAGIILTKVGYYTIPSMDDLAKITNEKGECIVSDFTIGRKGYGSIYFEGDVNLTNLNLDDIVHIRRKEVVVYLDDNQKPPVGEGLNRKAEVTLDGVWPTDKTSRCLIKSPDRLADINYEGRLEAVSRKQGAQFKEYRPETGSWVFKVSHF

T1: FLAG-FAM111B (human) (UniProt Q6SJ93)
T1 sequence: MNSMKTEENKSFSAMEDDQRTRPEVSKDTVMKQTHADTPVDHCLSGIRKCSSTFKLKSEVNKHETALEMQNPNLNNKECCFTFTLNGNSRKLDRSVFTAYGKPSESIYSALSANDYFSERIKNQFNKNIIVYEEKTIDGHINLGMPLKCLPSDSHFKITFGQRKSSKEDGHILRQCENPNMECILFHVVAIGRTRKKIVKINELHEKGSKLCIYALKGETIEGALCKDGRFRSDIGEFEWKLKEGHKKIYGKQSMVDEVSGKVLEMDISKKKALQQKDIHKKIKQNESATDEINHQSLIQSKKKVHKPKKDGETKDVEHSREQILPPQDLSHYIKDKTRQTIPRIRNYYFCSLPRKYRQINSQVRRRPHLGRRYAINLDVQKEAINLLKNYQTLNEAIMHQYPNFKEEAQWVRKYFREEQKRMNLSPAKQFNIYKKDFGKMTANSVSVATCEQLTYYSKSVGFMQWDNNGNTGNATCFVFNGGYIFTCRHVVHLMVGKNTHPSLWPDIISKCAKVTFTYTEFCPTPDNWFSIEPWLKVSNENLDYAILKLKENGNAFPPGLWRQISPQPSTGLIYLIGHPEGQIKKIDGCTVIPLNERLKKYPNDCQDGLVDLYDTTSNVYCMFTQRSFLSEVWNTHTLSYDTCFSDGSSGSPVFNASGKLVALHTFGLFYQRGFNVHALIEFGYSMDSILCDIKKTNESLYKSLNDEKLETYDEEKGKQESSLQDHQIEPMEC

B1: NUP42 (protein, UniProt O15504 1-423)
chain: MAICQFFLQGRCRFGDRCWNEHPGARGAGGGRQQPQQQPSGNNRRGWNTTSQRYSNVIQPSSFSKSTPWGGSRDQEKPYFSSFDSGASTNRKEGFGLSENPFASLSPDEQKDEKKLLEGIVKDMEVWESSGQWMFSVYSPVKKKPNISGFTDISPEELRLEYHNFLTSNNLQSYLNSVQRLINQWRNRVNELKSLNISTKVALLSDVKDGVNQAAPAFGFGSSQAATFMSPGFPVNNSSSDNAQNFSFKTNSGFAAASSGSPAGFGSSPAFGAAASTSSGISTSAPAFGFGKPEVTSAASFSFKSPAASSFGSPGFSGLPASLATGPVRAPVAPAFGGGSSVAGFGSPGSHSHTAFSKPSSDTFGNSSISTSLSASSSIIATDNVLFTPRDKLTVEELEQFQSKKFTLGKIPLKPPPLELLNV
B2: RAE1 (protein, UniProt P78406 1-368)
chain: MSLFGTTSGFGTSGTSMFGSATTDNHNPMKDIEVTSSPDDSIGCLSFSPPTLPGNFLIAGSWANDVRCWEVQDSGQTIPKAQQMHTGPVLDVCWSDDGSKVFTASCDKTAKMWDLSSNQAIQIAQHDAPVKTIHWIKAPNYSCVMTGSWDKTLKFWDTRSSNPMMVLQLPERCYCADVIYPMAVVATAERGLIVYQLENQPSEFRRIESPLKHQHRCVAIFKDKQNKPTGFALGSIEGRVAIHYINPPNPAKDNFTFKCHRSNGTNTSAPQDIYAVNGIAFHPVHGTLATVGSDGRFSFWDKDARTKLKTSEQLDQPISACCFNHNGNIFAYASSYDWSKGHEFYNPQKKNYIFLRNAAEELKPRNKK

Target: T1, FLAG-FAM111B (human)
Assay: affinity purification with mass spectrometry; FLAG-IP of FLAG-FAM111B (M2 anti-FLAG agarose, eluted with 3xFLAG peptide), eluate digested with trypsin, label-free quantitation against a FLAG control, two biological repeats

Molecule | binding
NUP98 (from UniProt P52948 1-880) | binds
B1 | binds
B2 | binds
